No constants are given. Whether binding was seen depends on the method and setting. For some assays here: In cells and extracts the contact can be indirect. Some results given as binding are weak or reduced against the parent protein; the word gives no strength. Sequences can lack the tags named with a protein. Values belong to the molecule of their own block, whether it stands above or below them.
How the values were obtained:
[1] = biological target: T1, GST-fusion protein containing the same portion of hrdgB1 (amino acids 627-936) (human) (UniProt Q9BZ71); assay: in vitro binding to immobilized GST-fusion protein
T1 sequence: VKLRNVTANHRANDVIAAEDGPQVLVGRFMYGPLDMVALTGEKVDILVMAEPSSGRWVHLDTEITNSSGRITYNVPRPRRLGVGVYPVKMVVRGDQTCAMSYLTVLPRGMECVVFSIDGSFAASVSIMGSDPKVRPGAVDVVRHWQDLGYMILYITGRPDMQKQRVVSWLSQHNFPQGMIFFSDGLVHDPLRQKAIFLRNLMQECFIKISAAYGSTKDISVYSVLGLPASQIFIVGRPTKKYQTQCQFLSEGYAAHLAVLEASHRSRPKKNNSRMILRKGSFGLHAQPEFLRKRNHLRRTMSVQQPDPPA

Sequences of proteins named here, by UniProt entry; tags and fusion partners are left off.
UniProt Q14289: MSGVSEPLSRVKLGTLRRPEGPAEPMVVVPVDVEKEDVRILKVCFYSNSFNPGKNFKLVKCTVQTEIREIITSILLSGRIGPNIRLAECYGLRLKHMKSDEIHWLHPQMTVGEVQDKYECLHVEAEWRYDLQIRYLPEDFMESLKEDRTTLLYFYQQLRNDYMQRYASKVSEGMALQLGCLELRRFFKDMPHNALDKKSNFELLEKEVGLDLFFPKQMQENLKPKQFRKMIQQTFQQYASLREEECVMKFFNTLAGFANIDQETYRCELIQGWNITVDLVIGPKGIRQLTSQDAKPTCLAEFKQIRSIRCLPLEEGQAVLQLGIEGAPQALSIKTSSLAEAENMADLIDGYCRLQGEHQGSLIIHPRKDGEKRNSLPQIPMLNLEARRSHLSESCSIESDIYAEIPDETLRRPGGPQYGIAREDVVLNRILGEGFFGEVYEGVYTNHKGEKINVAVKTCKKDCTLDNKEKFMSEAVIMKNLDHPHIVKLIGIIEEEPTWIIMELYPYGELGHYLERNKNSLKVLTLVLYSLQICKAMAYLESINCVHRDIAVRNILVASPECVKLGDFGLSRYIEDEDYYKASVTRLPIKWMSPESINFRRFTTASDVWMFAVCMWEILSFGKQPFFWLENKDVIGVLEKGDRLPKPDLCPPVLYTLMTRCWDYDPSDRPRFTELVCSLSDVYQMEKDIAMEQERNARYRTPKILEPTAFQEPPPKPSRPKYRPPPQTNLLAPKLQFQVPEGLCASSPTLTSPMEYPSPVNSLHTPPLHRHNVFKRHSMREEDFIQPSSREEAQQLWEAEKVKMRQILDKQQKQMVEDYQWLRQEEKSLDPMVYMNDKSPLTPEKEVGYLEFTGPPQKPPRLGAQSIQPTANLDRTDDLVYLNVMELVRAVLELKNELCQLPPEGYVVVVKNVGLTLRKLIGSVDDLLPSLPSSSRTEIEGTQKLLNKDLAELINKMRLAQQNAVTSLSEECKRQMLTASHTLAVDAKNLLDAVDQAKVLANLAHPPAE

[2] = biological target: PYK2 (tyrosine protein kinase) (UniProt Q14289); assay: coexpression in COS cells, anti-HA immunoprecipitation, immunoblot with anti-PYK2
[3] = biological target: PYK2 (tyrosine protein kinase) (UniProt Q14289); assay: pull-down of PYK2 out of a cell lysate with GST-fused rdgB protein
[4] = biological target: PYK2 (tyrosine protein kinase) (UniProt Q14289); assay: coexpression in COS cells, interaction analyzed

- binding [3]: binds
B3: GST-fusion protein containing the same portion of hrdgB1 (amino acids 627-936) (protein, not shown: a dimerising Fc or GST)
chain: T1 sequence

- binding [4]: binds
B4: myc-tagged version of the hrdgB2 'PYK2-binding domain' (residues 911-1243) (protein)
chain: MEQKLISEEDLVKIRNVTSNHRASDTVVCEGPPQVLSGRFMYGPLDVVTLTGEKVDVYIMTQPLSGKWIHFGTEVTNSSGRLTFPVPPERALGIGVYPVRMVVRGDHTYAECCLTVVARGTEAVVFSIDGSFTASVSIMGSDPKVRAGAVDVVRHWQDSGYLIVYVTGRPDMQKHRVVAWLSQHNFPHGVVSFCDGLTHDPLRQKAMFLQSLVQEVELNIVAGYGSPKDVAVYAALGLSPSQTYIVGRAVRKLQAQCQFLSDGYVAHLGQLEAGSHSHASSGPPRAALGKSSYGVAAPVDFLRKQSQLLRSRGPSQAEREGPGTPPTTLARGKARSISLKLDSE

More lines, now with the values behind:

Molecule: PYK2 (tyrosine protein kinase) (from UniProt Q14289 1-1009) (enzyme)
- binding [1]: binds

B1: hrdgB3-HA (full length hrdgB3 with C-terminal HA-epitope tag) (protein)
chain: MIIKEYRIPLPMTVEEYRIAQLYMIQKKSRNETYGEGSGVEILENRPYTDGPGGSGQYTHKVYHVGMHIPSWFRSILPKAALRVVEESWNAYPYTRTRFTCPFVEKFSIDIETFYKTDAGENPDVFNLSPVEKNQLTIDFIDIVKDPVPHNEYKTEEDPKLFQSTKTQRGPLSENWIEEYKKQVFPIMCAYKLCKVEFRYWGMQSKIERFIHDTGLRRVMVRAHRQAWCWQDEWYGLSMENIRELEKEAQLMLSRKMAQFNEDGEEATELVKHEAVSDQTSGEPPEPSSSNGEPLVGRGLKKQWSTSSKSSRSSKRGASPSRHSISEWRMQSIARDSDESSDDEFFDAHEDLSDTEEMFPKDITKWSSNDLMDKIESPEPEDTQDGLYRQGAPEFRVASSVEQLNIIEDEVSQPLAAPPSKIHVLLLVLHGGTILDTGAGDPSSKKGDANTIANVFDTVMRVHYPSALGRLAIRLVPCPPVCSDAFALVSNLSPYSHDEGCLSSSQDHIPLAALPLLATSSPQYQEAVATVIQRANLAYGDFIKSQEGMTFNGQVCLIGDCVGGILAFDALCYSNQPVSESQSSSRRGSVVSMQDNDLLSPGILMNAAHCCGGGGGGGGGGGSSGGGGSSGGSSLESSRHLSRSNVDIPRSNGTEDPKRQLPRKRSDSSTYELDTIQQHQAFLSSLHASVLRTEPCSRHSSSSTMLDGTGALGRFDFEITDLFLFGCPLGLVLALRKTVIPALDVFQLRPACQQVYNLFHPADPSASRLEPLLERRFHALPPFSVPRYQRYPLGDGCSTLLADVLQTHNAAFQEHGAPSSPGTAPASRGFRRASEISIASQVSGMAESYTASSIAQKAPDALSHTPSVRRLSLLALPAPSPTTPGPHPPARKASPGLERAPGLPELDIGEVAAKWWGQKRIDYALYCPDALTAFPTVALPHLFHASYWESTDVVSFLLRQVMRHDNSSILELDGKEVSVFTPSKPREKWQRKRTHVKLRNVTANHRINDALANEDGPQVLTGRFMYGPLDMVTLTGEKVDVHIMTQPPSGEWLYLDTLVTNNSGRVSYTIPESHRLGVGVYPIKMVVRGDHTFADSYITVLPKGTEFVVFSIDGSFAASVSIMGSDPKVRAGAVDVVRHWQDLGYLIIYVTGRPDMQKQRVVAWLAQHNFPHGVVSFCDGLVHDPLRHKANFLKLLISELHLRVHAAYGSTKDVAVYSAISLSPMQIYIVGRPTKKLQQQCQFITDGYAAHLAQLKYSHRARPARNTATRMALRKGSFGLPGQGDFLRSRNHLLRTISAQPSGPSHRHERTQSQADGEQRGQRSMSVAAGCWGRAMTGRLEPGAAAGPKYPYDVPDYAS
- binding [2]: binds

B2: hrdgB2-HA (full length hrdgB2 with C-terminal HA-epitope tag) (protein)
chain: MLIKEYHILLPMSLDEYQVAQLYMIQKKSREESSGEGSGVEILANRPYTDGPGGSGQYTHKVYHVGSHIPGWFRALLPKAALQVEEESWNAYPYTRTRYTCPFVEKFSIEIETYYLPDGGQQPNVFNLSGAERRQRILDTIDIVRDAVAPGEYKAEEDPRLYHSVKTGRGPLSDDWARTAAQTGPLMCAYKLCKVEFRYWGMQAKIEQFIHDVGLRRVMLRAHRQAWCWQDEWTELSMADIRALEEETARMLAQRMAKCNTGSEGSEAQPPGKPSTEARSAASNTGTPDGPEAPPGPDASPDASFGKQWSSSSRSSYSSQHGGAVSPQSLSEWRMQNIARDSENSSEEEFFDAHEGFSDSEEVFPKEMTKWNSNDFIDAFASPVEAEGTPEPGAEAAKGIEDGAQAPRDSEGLDGAGELGAEACAVHALFLILHSGNILDSGPGDANSKQADVQTLSSAFEAVTRIHFPEALGHVALRLVPCPPICAAAYALVSNLSPYSHDGDSLSRSQDHIPLAALPLLATSSSRYQGAVATVIARTNQAYSAFLRSPEGAGFCGQVALIGDGVGGILGFDALCHSANAGTGSRGSSRRGSMNNELLSPEFGPVRDPLADGVEGLGRGSPEPSALPPQRIPSDMASPEPEGSQNSLQAAPATTSSWEPRRASTAFCPPAASSEAPDGPSSTARLDFKVSGFFLFGSPLGLVLALRKTVMPALEAAQMRPACEQIYNLFHAADPCASRLEPLLAPKFQAIAPLTVPRYQKFPLGDGSSLLLADTLQTHSSLFLEELEMLVPSTPTSTSGAFWKGSELATDPPAQPAAPSTTSEVVKILERWWGTKRIDYSLYCPEALTAFPTVTLPHLFHASYWESADVVAFILRQVIEKERPQLAECEEPSIYSPAFPREKWQRKRTQVKIRNVTSNHRASDTVVCEGPPQVLSGRFMYGPLDVVTLTGEKVDVYIMTQPLSGKWIHFGTEVTNSSGRLTFPVPPERALGIGVYPVRMVVRGDHTYAECCLTVVARGTEAVVFSIDGSFTASVSIMGSDPKVRAGAVDVVRHWQDSGYLIVYVTGRPDMQKHRVVAWLSQHNFPHGVVSFCDGLTHDPLRQKAMFLQSLVQEVELNIVAGYGSPKDVAVYAALGLSPSQTYIVGRAVRKLQAQCQFLSDGYVAHLGQLEAGSHSHASSGPPRAALGKSSYGVAAPVDFLRKQSQLLRSRGPSQAEREGPGTPPTTLARGKARSISLKLDSEEYPYDVPDYAS
- binding [2]: binds

From patent publication US6576442 (SUGEN, dated 2003)
